# From PubChem BioAssay AID540336 (Broad Institute, 2011)
# Amino acid sequences for entries named in this document (tags omitted).
# UniProt Q5AAJ8, whole entry, looked up: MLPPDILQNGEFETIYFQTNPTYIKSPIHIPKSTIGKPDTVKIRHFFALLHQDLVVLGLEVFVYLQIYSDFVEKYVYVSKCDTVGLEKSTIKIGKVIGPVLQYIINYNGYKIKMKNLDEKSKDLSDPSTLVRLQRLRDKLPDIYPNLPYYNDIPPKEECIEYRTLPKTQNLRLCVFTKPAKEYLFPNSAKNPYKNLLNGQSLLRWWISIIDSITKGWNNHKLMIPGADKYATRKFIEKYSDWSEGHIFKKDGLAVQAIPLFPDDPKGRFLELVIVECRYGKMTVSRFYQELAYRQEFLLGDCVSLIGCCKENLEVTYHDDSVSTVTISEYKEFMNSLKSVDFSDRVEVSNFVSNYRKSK
# The campaign covered roughly 330,000 compounds. About 520 (0.16%) were called active. The shares of active, inactive and inconclusive entries below differ from those in the screen.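 The calls were made as follows: active = inhibition of at least 50% in every replicate; inconclusive = best replicate reaches 50% inhibition but some replicates fall short; inactive = the rest.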
# Biological target: Histone acetyltransferase RTT109 (Candida albicans (strain SC5314 / ATCC MYA-2876)) (UniProt Q5AAJ8)
# Assay: Rtt109-Vps75 histone acetyltransferase blockade – biochemical, ThioGlo CoA-SH fluorescence, plate reader, primary screen (AID 540336)
# Conditions: purified Rtt109/Vps75, ThioGlo CoA-SH fluorescence, 4 h; at 34.9 µM; active compounds read high
row,SMILES,inhibition
1,CCOC(=O)c1c(OCC)[nH]c2c1cc(O)c1ccccc12,inconclusive: 51.5%
2,Cc1noc(NS(=O)(=O)c2ccc(N/C=C/C(=O)c3cccnc3)cc2)c1C,active: 72.5%
3,COc1ccc(OC)c(CN2CCN(C(=O)c3cccc(S(=O)(=O)Nc4ccccc4OC)c3)CC2)c1,inactive: 9.79%
4,COc1ccc(NS(=O)(=O)c2ccc(C(=O)N3CCN(Cc4ccccc4)CC3)cc2)cc1,inconclusive: 29.3%
5,COc1ccccc1-[n+]1c(C)cc(/C=C2\Sc3ccccc3N2C)cc1C,inconclusive: 50.6%
6,Clc1ccc(C2CSc3c4ncnc-4ncn32)cc1 (stereo not given),inconclusive: 27.6%
7,CC(C)C(=O)Nc1nnc(CCN2CCCCC2)s1,active: 52.1%
8,COCCNC(=S)N/N=C/c1ccc(-c2ccc([N+](=O)[O-])cc2)o1,inactive: -1.9%
9,Cc1ccc(C)c(SCC(=O)Nc2oc(C)c3c(C)n[nH]c(=O)c23)c1,inactive: 5.47%
10,CCCc1nnc(NC(=O)c2nc(S(=O)(=O)Cc3ccc(C)cc3)ncc2Cl)s1,inconclusive: 47.9%
11,COc1cc(NC(=O)c2ccc(OC)c([N+](=O)[O-])c2)ccc1NC(=O)c1ccco1,inconclusive: 25%
12,O=C(O)/C=C/C(=O)c1ccc(O)cc1,inconclusive: 51.7%
13,CC(C)N=c1c([N+](=O)[O-])nn(C)n1O,inconclusive: 30.8%
14,CC(=O)Nc1ccc2c(c1)nc1n2CCSC1,inconclusive: 30.9%
15,Cc1ccc(C2CC2C(=O)NNC(=S)Nc2ccc(Cl)cc2)cc1 (stereo not given),inconclusive: 30.8%
16,CC1CCCC(NC(=O)CCNS(=O)(=O)c2ccc(Br)cc2)C1C (stereo not given),inconclusive: 34.4%
17,CC(C)CC(NC(=O)OC(C)(C)C)c1cn([C@@H](CCC(=O)OC(C)(C)C)C(=O)N2CCN(C(=O)OC(C)(C)C)CC2)nn1 (stereo not given in full),inconclusive: 12.9%
18,CC(=O)Nc1ccc(N(CC(O)Cn2c3ccccc3c3ccccc32)S(=O)(=O)c2ccc(C)cc2)cc1 (stereo not given),inactive: 11.6%
19,O=C(Oc1ccc2c(c1)OCC2=O)c1ccc(Cl)cc1,inactive: 2.62%
20,O=C1NC(=S)CN1c1ccccc1,active: 141%
21,Cc1cc(N2C(=O)C=CC2=O)c([N+](=O)[O-])cc1C,active: 116%
22,COCCN=c1scc(-c2ccco2)n1/N=C/c1ccc(O)c(O)c1O,inconclusive: 37.4%
23,COc1cc(CNCc2ccc(C)cc2)cc(OC)c1OC,active: 50.5%
24,Cc1ccsc1/C=N/NC(=O)c1sccc1C,inactive: -2.85%
25,CC(C)CNC(=O)C(=O)Nc1cc2c3c(c1)C(C)C(=O)N3CCC2 (stereo not given),inactive: 2.39%

# 3 structures from above, ordered by molar mass, low to high:
row,SMILES,inhibition
24,Cc1ccsc1/C=N/NC(=O)c1sccc1C,inactive: -2.85%
15,Cc1ccc(C2CC2C(=O)NNC(=S)Nc2ccc(Cl)cc2)cc1 (stereo not given),inconclusive: 30.8%
11,COc1cc(NC(=O)c2ccc(OC)c([N+](=O)[O-])c2)ccc1NC(=O)c1ccco1,inconclusive: 25%
